Measurements published in publication PMC10799901.
No constants are given. Whether binding was seen depends on the method and setting. In cells and extracts the contact can be indirect. Some entries that bind do so weakly or less than the wild type.

Protein sequences, listed by entry. Tags and fused reporters are not part of them.
UniProt Q9WTL8: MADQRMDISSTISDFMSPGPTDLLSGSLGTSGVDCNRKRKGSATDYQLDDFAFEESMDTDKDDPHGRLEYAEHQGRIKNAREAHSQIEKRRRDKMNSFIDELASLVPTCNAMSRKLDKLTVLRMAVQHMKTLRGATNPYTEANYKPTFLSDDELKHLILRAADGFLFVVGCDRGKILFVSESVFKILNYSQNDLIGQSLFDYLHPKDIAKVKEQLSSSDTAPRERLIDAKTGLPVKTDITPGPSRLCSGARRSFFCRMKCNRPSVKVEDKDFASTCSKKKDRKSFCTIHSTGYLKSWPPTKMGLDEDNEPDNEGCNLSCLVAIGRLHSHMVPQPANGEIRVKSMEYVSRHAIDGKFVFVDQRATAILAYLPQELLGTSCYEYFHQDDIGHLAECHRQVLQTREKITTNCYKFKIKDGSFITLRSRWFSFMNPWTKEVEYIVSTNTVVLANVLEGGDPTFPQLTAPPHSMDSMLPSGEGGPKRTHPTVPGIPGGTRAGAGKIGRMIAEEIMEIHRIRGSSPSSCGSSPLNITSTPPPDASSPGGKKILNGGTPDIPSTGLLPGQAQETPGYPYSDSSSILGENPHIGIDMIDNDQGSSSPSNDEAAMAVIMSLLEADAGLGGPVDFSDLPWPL
UniProt O00327: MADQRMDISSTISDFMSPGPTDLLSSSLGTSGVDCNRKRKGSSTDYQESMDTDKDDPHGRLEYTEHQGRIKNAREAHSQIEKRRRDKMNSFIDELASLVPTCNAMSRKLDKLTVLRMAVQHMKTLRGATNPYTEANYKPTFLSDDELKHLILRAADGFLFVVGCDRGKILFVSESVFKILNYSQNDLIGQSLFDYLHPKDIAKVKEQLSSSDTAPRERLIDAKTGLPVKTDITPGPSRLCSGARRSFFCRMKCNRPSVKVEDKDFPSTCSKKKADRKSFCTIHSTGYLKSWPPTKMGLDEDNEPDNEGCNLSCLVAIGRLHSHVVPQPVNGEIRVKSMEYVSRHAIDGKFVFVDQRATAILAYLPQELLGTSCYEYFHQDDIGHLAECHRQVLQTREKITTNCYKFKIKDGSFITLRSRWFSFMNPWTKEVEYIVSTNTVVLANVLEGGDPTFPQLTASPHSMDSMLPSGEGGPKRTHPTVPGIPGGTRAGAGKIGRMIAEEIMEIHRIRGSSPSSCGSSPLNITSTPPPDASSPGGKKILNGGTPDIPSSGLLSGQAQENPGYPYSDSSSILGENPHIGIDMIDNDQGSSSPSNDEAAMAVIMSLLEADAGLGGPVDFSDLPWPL
UniProt P57780: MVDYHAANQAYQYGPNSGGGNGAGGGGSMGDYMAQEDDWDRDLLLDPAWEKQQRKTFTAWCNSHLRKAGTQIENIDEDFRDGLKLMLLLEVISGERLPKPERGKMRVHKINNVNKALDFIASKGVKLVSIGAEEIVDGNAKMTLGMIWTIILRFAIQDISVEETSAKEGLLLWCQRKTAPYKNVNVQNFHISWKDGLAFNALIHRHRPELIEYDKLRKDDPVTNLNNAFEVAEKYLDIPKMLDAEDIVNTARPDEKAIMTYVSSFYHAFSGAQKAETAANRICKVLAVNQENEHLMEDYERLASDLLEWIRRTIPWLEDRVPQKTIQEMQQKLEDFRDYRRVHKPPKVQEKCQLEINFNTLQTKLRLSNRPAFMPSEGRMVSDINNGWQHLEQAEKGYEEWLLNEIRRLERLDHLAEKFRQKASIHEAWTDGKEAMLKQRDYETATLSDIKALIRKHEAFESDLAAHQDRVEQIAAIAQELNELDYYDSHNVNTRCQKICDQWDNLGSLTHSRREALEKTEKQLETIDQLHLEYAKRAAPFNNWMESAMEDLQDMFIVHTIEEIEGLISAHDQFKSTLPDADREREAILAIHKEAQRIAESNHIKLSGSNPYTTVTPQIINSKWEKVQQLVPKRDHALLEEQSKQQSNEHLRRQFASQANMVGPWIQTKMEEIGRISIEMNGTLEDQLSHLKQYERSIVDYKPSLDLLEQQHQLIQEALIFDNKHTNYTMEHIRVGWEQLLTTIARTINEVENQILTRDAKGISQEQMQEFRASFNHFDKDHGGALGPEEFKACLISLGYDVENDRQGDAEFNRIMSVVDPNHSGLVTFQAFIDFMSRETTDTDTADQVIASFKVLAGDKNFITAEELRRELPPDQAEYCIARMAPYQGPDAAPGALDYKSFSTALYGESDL
UniProt Q61188: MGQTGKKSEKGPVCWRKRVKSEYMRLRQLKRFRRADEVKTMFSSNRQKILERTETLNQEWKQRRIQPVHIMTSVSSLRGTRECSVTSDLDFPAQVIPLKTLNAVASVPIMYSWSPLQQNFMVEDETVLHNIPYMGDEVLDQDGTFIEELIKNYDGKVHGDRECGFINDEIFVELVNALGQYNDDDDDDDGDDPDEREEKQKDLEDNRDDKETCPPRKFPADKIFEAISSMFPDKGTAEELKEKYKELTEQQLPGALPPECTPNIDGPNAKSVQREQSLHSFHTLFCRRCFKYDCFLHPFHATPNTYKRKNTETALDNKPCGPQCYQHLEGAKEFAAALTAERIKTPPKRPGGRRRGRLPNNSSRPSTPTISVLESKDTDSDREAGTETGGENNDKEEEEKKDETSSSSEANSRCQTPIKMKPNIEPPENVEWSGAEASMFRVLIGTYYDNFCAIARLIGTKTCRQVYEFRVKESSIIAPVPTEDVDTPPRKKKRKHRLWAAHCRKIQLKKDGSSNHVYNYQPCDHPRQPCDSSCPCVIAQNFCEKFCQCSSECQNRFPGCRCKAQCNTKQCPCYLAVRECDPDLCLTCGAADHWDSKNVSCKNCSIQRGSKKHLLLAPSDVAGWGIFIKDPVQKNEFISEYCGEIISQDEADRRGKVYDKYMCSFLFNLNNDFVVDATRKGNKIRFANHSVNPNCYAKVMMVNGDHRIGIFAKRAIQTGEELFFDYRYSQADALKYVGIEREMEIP
UniProt P35579: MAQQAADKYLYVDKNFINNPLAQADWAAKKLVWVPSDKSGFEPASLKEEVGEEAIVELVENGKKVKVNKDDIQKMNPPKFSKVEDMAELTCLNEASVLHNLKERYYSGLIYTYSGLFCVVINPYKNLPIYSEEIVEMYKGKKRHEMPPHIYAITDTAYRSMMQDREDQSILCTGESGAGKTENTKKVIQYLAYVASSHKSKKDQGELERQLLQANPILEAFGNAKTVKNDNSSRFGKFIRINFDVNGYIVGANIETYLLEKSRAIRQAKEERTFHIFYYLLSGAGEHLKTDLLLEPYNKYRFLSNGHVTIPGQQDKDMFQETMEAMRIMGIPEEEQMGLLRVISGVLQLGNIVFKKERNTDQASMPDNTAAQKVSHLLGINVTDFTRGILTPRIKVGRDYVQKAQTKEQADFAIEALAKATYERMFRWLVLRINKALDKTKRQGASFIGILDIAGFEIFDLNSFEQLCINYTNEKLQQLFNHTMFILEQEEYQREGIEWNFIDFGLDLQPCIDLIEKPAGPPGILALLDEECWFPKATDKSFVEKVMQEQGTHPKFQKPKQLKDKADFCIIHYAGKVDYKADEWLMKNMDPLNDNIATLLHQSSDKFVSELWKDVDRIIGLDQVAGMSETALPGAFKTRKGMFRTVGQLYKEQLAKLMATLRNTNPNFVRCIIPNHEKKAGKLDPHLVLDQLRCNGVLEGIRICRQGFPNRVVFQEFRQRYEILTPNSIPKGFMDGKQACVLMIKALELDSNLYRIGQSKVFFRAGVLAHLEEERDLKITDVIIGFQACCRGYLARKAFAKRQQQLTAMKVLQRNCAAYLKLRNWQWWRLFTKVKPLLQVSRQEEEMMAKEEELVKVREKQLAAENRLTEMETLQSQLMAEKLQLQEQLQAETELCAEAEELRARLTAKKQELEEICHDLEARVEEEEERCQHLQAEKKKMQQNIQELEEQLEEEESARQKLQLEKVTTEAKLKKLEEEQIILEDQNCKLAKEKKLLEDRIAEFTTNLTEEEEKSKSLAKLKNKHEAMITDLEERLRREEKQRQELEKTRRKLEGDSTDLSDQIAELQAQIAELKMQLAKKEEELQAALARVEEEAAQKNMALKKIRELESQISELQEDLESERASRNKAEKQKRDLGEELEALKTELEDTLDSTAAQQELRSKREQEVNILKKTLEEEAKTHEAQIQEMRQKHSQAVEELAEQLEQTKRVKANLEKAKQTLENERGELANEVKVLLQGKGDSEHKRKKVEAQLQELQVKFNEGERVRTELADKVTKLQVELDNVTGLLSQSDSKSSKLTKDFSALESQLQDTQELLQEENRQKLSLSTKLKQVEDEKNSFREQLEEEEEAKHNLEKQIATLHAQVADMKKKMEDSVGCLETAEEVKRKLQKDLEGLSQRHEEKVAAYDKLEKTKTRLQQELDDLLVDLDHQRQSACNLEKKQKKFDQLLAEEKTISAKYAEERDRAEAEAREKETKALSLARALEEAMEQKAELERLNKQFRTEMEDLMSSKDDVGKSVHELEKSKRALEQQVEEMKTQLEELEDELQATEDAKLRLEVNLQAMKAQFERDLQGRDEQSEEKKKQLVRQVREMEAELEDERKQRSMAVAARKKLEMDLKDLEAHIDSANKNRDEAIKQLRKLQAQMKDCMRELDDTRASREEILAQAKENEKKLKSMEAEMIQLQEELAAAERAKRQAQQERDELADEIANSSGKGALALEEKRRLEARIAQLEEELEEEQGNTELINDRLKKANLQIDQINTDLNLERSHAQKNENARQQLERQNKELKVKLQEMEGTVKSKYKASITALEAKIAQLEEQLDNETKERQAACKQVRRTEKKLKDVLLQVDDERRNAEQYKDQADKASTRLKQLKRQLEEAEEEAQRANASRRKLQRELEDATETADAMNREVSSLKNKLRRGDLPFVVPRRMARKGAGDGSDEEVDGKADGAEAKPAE

How the values were obtained:
[1] = biological target: WT-Bmal1, ectopically expressed wild-type Bmal1 (UniProt Q9WTL8); assay: co-IP; cells cross-linked with 1% formaldehyde for 10 min; nuclear extract in high salt nuclear extraction buffer (10 mM HEPES pH 8.0, 0.2 M NaCl); BMAL1 antibody or normal rabbit IgG, protein A beads; immunoblot
[2] = biological target: BMAL1, endogenous in human melanoma cell lines (human (endogenous in human melanoma cell lines)) (UniProt O00327); assay: proximity ligation; Duolink In Situ Red kit on fixed, permeabilised cells; anti-BMAL1 + anti-MYH9; YUMM2.1 EV, WT-Bmal1, dHLH-Bmal1, reconstituted YUMM2.1KO cells and several human melanoma cell lines; signal mostly in the nucleus

Row | Substance | binding [1] | binding [2]
1 | Actinin 4 (Actn4), endogenous (from UniProt P57780 1-912) | binds | –
2 | Ezh2, endogenous (from UniProt Q61188 1-746) | no binding | –
3 | MYH9, endogenous in human melanoma cell lines (from UniProt P35579 1-1960) | – | binds
